The results in this text go back to article PMC2887905.

These are yes or no findings as the source states them, for the method shown.

This experiment deals with Recombinant HIV-1 gp120 (LAV, CXCR4 monotropic, identical to NL4-3 gp120, glycosylated) (HIV-1 (LAV; identical to NL4-3 gp120)) (UniProt P03377). Nature of the experiment: condition: below 5 RU; tested at 1, 5, 10, 25 and 50 μg/ml; SPR; LAV gp120 immobilised by NHS/EDC coupling on a CM5 sensor chip (3500-5000 RU), Biacore 1000, HBS-EP buffer, flow rate 5 μl/min for 6 min; proteins tested at 1, 5, 10, 25 and 50 μg/ml; both purified. A general note: Surface plasmon resonance follows binding to a sensor surface in real time, without labels.
With “bovine serum albumin, normal, non-modified (from UniProt P02769 25-607)”, the binding entry is reported as “no binding”. Regarding “human serum albumin, normal, non-modified (from UniProt P02768 25-609)”, the binding result is given as “no binding”. As for “mouse serum albumin, normal, non-modified (from UniProt P07724 25-608)”, the entry is “no binding”.
